# Data from patent US20070166547A1, “Use of a layer consisting of hydrophobic linear, or two-dimensional polycyclic aromatics as a barrier layer or an encapsulation and electric components constructed with a layer of this type and comprising organic polymers” (priority 2003, published 2007).
# Legend:
# [1] = system: indicator enzymes in blood plasma; experiment: Morphine abstinence model: indicator enzymes AST, ALT, γ-GTP in blood plasma; type: in vivo, rats Wistar; conditions: morphine alone, 6 days intraperitoneal
# Experimental: (§1) The experiments were carried out on rats in series of 7 animals on each compound according to the invention. Non-morphinized animal with not administered with compounds according to the invention were used as a control group. […] Then the rats were decapitated, the blood from somnolent arteries was collected in test tubes with solution EDTA as an anticoagulant, centrifuged at 1500 g for 15 minutes at 4° C.
# To estimate possible hepatoprotective action of the compounds according to the invention under conditions of development of an oxidizing stress in the liver cells, effect of these compounds on the most important biochemical blood indexes, in particular, on the content in blood plasma of indicator enzyme of aspartateaminotransferase (AST), alanineaminotransferase (ALT), γ-glutamiletranspeptidase (γ-GTP) was investigated. The content of enzymes was estimated by their catalyzing activity in blood plasma.
# The activity of AST, ALT and γ-GTP was determined by means of diagnostic sets DiaSys, Germany.
# [2] = system: metabolism of nitrogen oxide; experiment: Morphine abstinence model: nitrites and nitrates NOX− in blood plasma, liver and brain; type: in vivo, rats Wistar; conditions: morphine alone
# Experimental: as §1
# To estimate the intensity of metabolism of nitrogen oxide in rats, quantitative determination of stable metabolites of nitrogen oxide—nitrites and nitrates NOX^− in the blood plasma, supernatanates of the liver and thymus gland, a study was conducted by a spectrometric method, and in the brain supernatanates by a […] method.
# The spectrometric method is based the reaction of nitrites with the Griss reagent (a mixture of 2% solution of sulfanilamide and 0.2% N-(1-naphthyl)ethylene diamine. At the first step the nitrite reacts with sulfanilamide with formation of diazonium salt, and then with the second component to form azo dye with an adsorption maximum at 540 nm. For reduction of nitrates into nitrites, a fermentative method was used with bacterial reductase nitrate (Grisham M. B. et al., 1995). The samples of plasma and supernatant of the liver deproteinizated at 100° C. for 5 minutes incubated for 30 minutes at 37° C. in 50.0 mM of HEPES pH 7.4 in the presence of 0.2 unit/ml of Aspergillus reductase nitrate, 5.0 mkM of FAD and 0.1 mM of NAD-Ph. At the end of the reaction lactate dehydrogenase and pyruvate were added for isolation of NAD-Ph interfering with the Griss reaction. Then the Griss reagent was added and after 10-minute incubation the light absorption of the samples was measured at 540 nm. To amount of NOX^− was calculated using sodium nitrate as a standard.
# The fluorometric method is based on calculation of the nitrite level by the intensity fluorescence of 2,3-diaminonaphthotriazole, a product of reaction of 2,3-diaminonaphthalene (DAN) and nitrite in an acidic medium (Misko T. R., Schilling R. J., Salvemini D. et al. “A fluorometric assay for the measurement of nitrite of biological samples”. Anal. Biochem., 1993, v. 214, p. 11-16). […]
# 280 mM of NaOH were added for stabilization of the fluorescence of the formed 2,3-diaminonaphthotriazole. The fluorescence intensity was measured in the spectrofluorimeter Hitachi F-3000 at a wavelength of excitation of 365 nm and an emission of 405 nm. The concentration of NOX^− in the brain was calculated by means of a standard solution of sodium nitrate.
smiles,measurement,setting,value
"CN1CC[C@]23c4c5ccc(O)c4O[C@H]2[C@@H](O)C=C[C@H]3[C@H]1C5 [Morphine, reference compound]","ALT, Ci, mE/l, control + Morphine",[1],116.12 ± 110.44 mE/l
same,"AST, Ci, mE/l, control + Morphine",[1],238.201 ± 14.71 mE/l
same,"γ-GTP, Ci, mE/l, control + Morphine",[1],16.80 ± 13.32 mE/l
same,"Nitrites in blood plasma, Control + Morphine",[2],12.12 ± 0.61 mkmol/ml
same,"Nitrites in brain, Cortex of cerebrum, Control + Morphine",[2],5.31 ± 0.29 nmol/mg of protein
same,"Nitrites in brain, Mesencephalon, Control + Morphine",[2],9.41 ± 1.20 nmol/mg of protein
same,"Nitrites in liver, Control + Morphine",[2],0.259 ± 0.012 nmol/mg of protein
